Test results published in US20250283871A1, “COMPOSITIONS AND METHODS FOR MODULATING THE INTERACTION BETWEEN SS18-SSX FUSION ONCOPROTEIN AND NUCLEOSOMES” (Dana-Farber Cancer Institute, Inc., priority 2020, published 2025).

Test system: BAF complex subunits and histone proteins
Assay: Mass spectrometry proteomics of purified HA-SS18 WT and HA-SS18-SSX1 complexes (Tables 5A-5E)
Parameters: species or system human
Conditions: for Total / Unique: HA-SS18SSX1_CHR_peptides; for Total: total peptides of the identified protein; for Unique: unique peptides of the identified protein
[1] = HA-SS18WT_CHR_peptides: protein identified in HA-SS18 WT BAF complex purification from nuclease-treated solubilized chromatin (CHR), HEK-293T
[2] = HA-SS18SSX1_CHR_peptides: protein identified in the HA-SS18-SSX1 purification from solubilized chromatin (CHR), HEK-293T
[3] = HA-SS18WT_CHR_peptides: HA-SS18 WT purification from nuclease-treated solubilized chromatin (CHR), HEK-293T, label = protein identified

Molecule | Total | Unique | Total (total peptides) [1] | Unique (unique peptides) [1] | Total (total peptides) [2] | Unique (unique peptides) [2] | Total (peptides) [3] | Unique (peptides) [3]
CDK11A (protein, UniProt Q9UQ88 1-783, looked up) Cyclin-dependent kinase 11A: MGDEKDSWKVKTLDEILQEKKRRKEQEEKAEIKRLKNSDDRDSKRDSLEEGELRDHCMEITIRNSPYRREDSMEDRGEEDDSLAIKPPQQMSRKEKVHHRKDEKRKEKWKHARVKEREHERRKRHREEQDKARREWERQKRREMAREHSRRERDRLEQLERKRERERKMREQQKEQREQKERERRAEERRKEREARREVSAHHRTMREDYSDKVKASHWSRSPPRPPRERFELGDGRKPGEARPAPAQKPAQLKEEKMEERDLLSDLQDISDSERKTSSAESSSAESGSGSEEEEEEEEEEEEEGSTSEESEEEEEEEEEEEEETGSNSEEASEQSAEEVSEEEMSEDEERENENHLLVVPESRFDRDSGESEEAEEEVGEGTPQSSALTEGDYVPDSPALLPIELKQELPKYLPALQGCRSVEEFQCLNRIEEGTYGVVYRAKDKKTDEIVALKRLKMEKEKEGFPITSLREINTILKAQHPNIVTVREIVVGSNMDKIYIVMNYVEHDLKSLMETMKQPFLPGEVKTLMIQLLRGVKHLHDNWILHRDLKTSNLLLSHAGILKVGDFGLAREYGSPLKAYTPVVVTQWYRAPELLLGAKEYSTAVDMWSVGCIFGELLTQKPLFPGNSEIDQINKVFKELGTPSEKIWPGYSELPVVKKMTFSEHPYNNLRKRFGALLSDQGFDLMNKFLTYFPGRRISAEDGLKHEYFRETPLPIDPSMFPTWPAKSEQQRVKRGTSPRPPEGGLGYSQLGDDDLKETGFHLTTTNQGASAAGPGFSLKF | 2 | 2 | 1 | 1 |  |  |  | 
BAZ1B (protein, UniProt Q9UIG0 1-1483, looked up) Tyrosine-protein kinase BAZ1B: MAPLLGRKPFPLVKPLPGEEPLFTIPHTQEAFRTREEYEARLERYSERIWTCKSTGSSQLTHKEAWEEEQEVAELLKEEFPAWYEKLVLEMVHHNTASLEKLVDTAWLEIMTKYAVGEECDFEVGKEKMLKVKIVKIHPLEKVDEEATEKKSDGACDSPSSDKENSSQIAQDHQKKETVVKEDEGRRESINDRARRSPRKLPTSLKKGERKWAPPKFLPHKYDVKLQNEDKIISNVPADSLIRTERPPNKEIVRYFIRHNALRAGTGENAPWVVEDELVKKYSLPSKFSDFLLDPYKYMTLNPSTKRKNTGSPDRKPSKKSKTDNSSLSSPLNPKLWCHVHLKKSLSGSPLKVKNSKNSKSPEEHLEEMMKMMSPNKLHTNFHIPKKGPPAKKPGKHSDKPLKAKGRSKGILNGQKSTGNSKSPKKGLKTPKTKMKQMTLLDMAKGTQKMTRAPRNSGGTPRTSSKPHKHLPPAALHLIAYYKENKDREDKRSALSCVISKTARLLSSEDRARLPEELRSLVQKRYELLEHKKRWASMSEEQRKEYLKKKREELKKKLKEKAKERREKEMLERLEKQKRYEDQELTGKNLPAFRLVDTPEGLPNTLFGDVAMVVEFLSCYSGLLLPDAQYPITAVSLMEALSADKGGFLYLNRVLVILLQTLLQDEIAEDYGELGMKLSEIPLTLHSVSELVRLCLRRSDVQEESEGSDTDDNKDSAAFEDNEVQDEFLEKLETSEFFELTSEEKLQILTALCHRILMTYSVQDHMETRQQMSAELWKERLAVLKEENDKKRAEKQKRKEMEAKNKENGKVENGLGKTDRKKEIVKFEPQVDTEAEDMISAVKSRRLLAIQAKKEREIQEREMKVKLERQAEEERIRKHKAAAEKAFQEGIAKAKLVMRRTPIGTDRNHNRYWLFSDEVPGLFIEKGWVHDSIDYRFNHHCKDHTVSGDEDYCPRSKKANLGKNASMNTQHGTATEVAVETTTPKQGQNLWFLCDSQKELDELLNCLHPQGIRESQLKERLEKRYQDIIHSIHLARKPNLGLKSCDGNQELLNFLRSDLIEVATRLQKGGLGYVEETSEFEARVISLEKLKDFGECVIALQASVIKKFLQGFMAPKQKRRKLQSEDSAKTEEVDEEKKMVEEAKVASALEKWKTAIREAQTFSRMHVLLGMLDACIKWDMSAENARCKVCRKKGEDDKLILCDECNKAFHLFCLRPALYEVPDGEWQCPACQPATARRNSRGRNYTEESASEDSEDDESDEEEEEEEEEEEEEDYEVAGLRLRPRKTIRGKHSVIPPAARSGRRPGKKPHSTRRSQPKAPPVDDAEVDELVLQTKRSSRRQSLELQKCEEILHKIVKYRFSWPFREPVTRDEAEDYYDVITHPMDFQTVQNKCSCGSYRSVQEFLTDMKQVFTNAEVYNCRGSHVLSCMVKTEQCLVALLHKHLPGHPYVRRKRKKFPDRLAEDEGDSEPEAVGQSRGRRQKK |  |  |  |  | 28 | 26 | 19 | 19
MTF2 (protein, UniProt Q9Y483 1-593, looked up) Metal-response …: MRDSTGAGNSLVHKRSPLRRNQKTPTSLTKLSLQDGHKAKKPACKFEEGQDVLARWSDGLFYLGTIKKINILKQSCFIIFEDSSKSWVLWKDIQTGATGSGEMVCTICQEEYSEAPNEMVICDKCGQGYHQLCHTPHIDSSVIDSDEKWLCRQCVFATTTKRGGALKKGPNAKALQVMKQTLPYSVADLEWDAGHKTNVQQCYCYCGGPGDWYLKMLQCCKCKQWFHEACVQCLQKPMLFGDRFYTFICSVCSSGPEYLKRLPLQWVDIAHLCLYNLSVIHKKKYFDSELELMTYINENWDRLHPGELADTPKSERYEHVLEALNDYKTMFMSGKEIKKKKHLFGLRIRVPPVPPNVAFKAEKEPEGTSHEFKIKGRKASKPISDSREVSNGIEKKGKKKSVGRPPGPYTRKMIQKTAEPLLDKESISENPTLDLPCSIGRTEGTAHSSNTSDVDFTGASSAKETTSSSISRHYGLSDSRKRTRTGRSWPAAIPHLRRRRGRLPRRALQTQNSEIVKDDEGKEDYQFDELNTEILNNLADQELQLNHLKNSITSYFGAAGRIACGEKYRVLARRVTLDGKVQYLVEWEGATAS | 2 | 2 |  |  |  |  |  | 
NOL6 (protein, UniProt Q9H6R4 1-1146, looked up) Nucleolar protein 6: MGPAPAGEQLRGATGEPEVMEPALEGTGKEGKKASSRKRTLAEPPAKGLLQPVKLSRAELYKEPTNEELNRLRETEILFHSSLLRLQVEELLKEVRLSEKKKDRIDAFLREVNQRVVRVPSVPETELTDQAWLPAGVRVPLHQVPYAVKGCFRFLPPAQVTVVGSYLLGTCIRPDINVDVALTMPREILQDKDGLNQRYFRKRALYLAHLAHHLAQDPLFGSVCFSYTNGCHLKPSLLLRPRGKDERLVTVRLHPCPPPDFFRPCRLLPTKNNVRSAWYRGQSPAGDGSPEPPTPRYNTWVLQDTVLESHLQLLSTILSSAQGLKDGVALLKVWLRQRELDKGQGGFTGFLVSMLVVFLVSTRKIHTTMSGYQVLRSVLQFLATTDLTVNGISLCLSSDPSLPALADFHQAFSVVFLDSSGHLNLCADVTASTYHQVQHEARLSMMLLDSRADDGFHLLLMTPKPMIRAFDHVLHLRPLSRLQAACHRLKLWPELQDNGGDYVSAALGPLTTLLEQGLGARLNLLAHSRPPVPEWDISQDPPKHKDSGTLTLGLLLRPEGLTSVLELGPEADQPEAAKFRQFWGSRSELRRFQDGAIREAVVWEAASMSQKRLIPHQVVTHLLALHADIPETCVHYVGGPLDALIQGLKETSSTGEEALVAAVRCYDDLSRLLWGLEGLPLTVSAVQGAHPVLRYTEVFPPTPVRPAFSFYETLRERSSLLPRLDKPCPAYVEPMTVVCHLEGSGQWPQDAEAVQRVRAAFQLRLAELLTQQHGLQCRATATHTDVLKDGFVFRIRVAYQREPQILKEVQSPEGMISLRDTAASLRLERDTRQLPLLTSALHGLQQQHPAFSGVARLAKRWVRAQLLGEGFADESLDLVAAALFLHPEPFTPPSSPQVGFLRFLFLVSTFDWKNNPLFVNLNNELTVEEQVEIRSGFLAARAQLPVMVIVTPQDRKNSVWTQDGPSAQILQQLVVLAAEALPMLEKQLMDPRGPGDIRTVFRPPLDIYDVLIRLSPRHIPRHRQAVDSPAASFCRGLLSQPGPSSLMPVLGYDPPQLYLTQLREAFGDLALFFYDQHGGEVIGVLWKPTSFQPQPFKASSTKGRMVMSRGGELVMVPNVEAILEDFAVLGEGLVQTVEARSERWTV | 2 | 2 |  |  |  |  |  | 
MYEF2 (protein, UniProt Q9P2K5 1-600, looked up) Myelin expression factor 2: MADANKAEVPGATGGDSPHLQPAEPPGEPRREPHPAEAEKQQPQHSSSSNGVKMENDESAKEEKSDLKEKSTGSKKANRFHPYSKDKNSGAGEKKGPNRNRVFISNIPYDMKWQAIKDLMREKVGEVTYVELFKDAEGKSRGCGVVEFKDEEFVKKALETMNKYDLSGRPLNIKEDPDGENARRALQRTGGSFPGGHVPDMGSGLMNLPPSILNNPNIPPEVISNLQAGRLGSTIFVANLDFKVGWKKLKEVFSIAGTVKRADIKEDKDGKSRGMGTVTFEQAIEAVQAISMFNGQFLFDRPMHVKMDDKSVPHEEYRSHDGKTPQLPRGLGGIGMGLGPGGQPISASQLNIGGVMGNLGPGGMGMDGPGFGGMNRIGGGIGFGGLEAMNSMGGFGGVGRMGELYRGAMTSSMERDFGRGDIGINQGFGDSFGRLGSAMIGGFAGRIGSSNMGPVGSGISGGMGSMNSVTGGMGMGLDRMSSSFDRMGPGIGAILERSIDMDRGFLSGPMGSGMRERIGSKGNQIFVRNLPFDLTWQKLKEKFSQCGHVMFAEIKMENGKSKGCGTVRFDSPESAEKACRIMNGIKISGREIDVRLDRNA | 2 | 2 | 1 | 1 |  |  |  | 
RBBP7 (protein, UniProt Q16576 2-425, looked up) Histone-binding protein RBBP7: ASKEMFEDTVEERVINEEYKIWKKNTPFLYDLVMTHALQWPSLTVQWLPEVTKPEGKDYALHWLVLGTHTSDEQNHLVVARVHIPNDDAQFDASHCDSDKGEFGGFGSVTGKIECEIKINHEGEVNRARYMPQNPHIIATKTPSSDVLVFDYTKHPAKPDPSGECNPDLRLRGHQKEGYGLSWNSNLSGHLLSASDDHTVCLWDINAGPKEGKIVDAKAIFTGHSAVVEDVAWHLLHESLFGSVADDQKLMIWDTRSNTTSKPSHLVDAHTAEVNCLSFNPYSEFILATGSADKTVALWDLRNLKLKLHTFESHKDEIFQVHWSPHNETILASSGTDRRLNVWDLSKIGEEQSAEDAEDGPPELLFIHGGHTAKISDFSWNPNEPWVICSVSEDNIMQIWQMAENIYNDEESDVTTSELEGQGS | 2 | 1 |  |  |  |  |  | 
PRB1 (protein, UniProt P04280 17-392, looked up) Basic salivary proline-rich …: QNLNEDVSQEESPSLIAGNPQGPSPQGGNKPQGPPPPPGKPQGPPPQGGNKPQGPPPPGKPQGPPPQGDKSRSPRSPPGKPQGPPPQGGNQPQGPPPPPGKPQGPPPQGGNKPQGPPPPGKPQGPPPQGDKSQSPRSPPGKPQGPPPQGGNQPQGPPPPPGKPQGPPPQGGNKPQGPPPPGKPQGPPPQGDKSQSPRSPPGKPQGPPPQGGNQPQGPPPPPGKPQGPPQQGGNRPQGPPPPGKPQGPPPQGDKSRSPQSPPGKPQGPPPQGGNQPQGPPPPPGKPQGPPPQGGNKPQGPPPPGKPQGPPAQGGSKSQSARSPPGKPQGPPQQEGNNPQGPPPPAGGNPQQPQAPPAGQPQGPPRPPQGGRPSRPPQ | 1 | 1 |  |  |  |  |  | 
